Test results: article doi:10.1101/775536
These are yes or no findings as the source states them, for the method shown. In cells and extracts the contact can be indirect. Some entries that bind do so weakly or less than the wild type. For some assays here: Where a sequence is shown, tags or fusion partners need not be part of it.

Key:
[1] = target: HlpA-SmBit (S. pneumoniae D39V); assay: split reporter
[2] = target: CcrZ-LgBit (S. pneumoniae D39V); assay: split reporter

HlpA-SmBit (from UniProt A0ACD7PRL6 1-91)
binding [1]: binds

B1: YabA (split-luciferase fusion) (protein, UniProt B1IBA4 1-105)
chain: MDKKELFDALDDFSQQLLVTLADVEAIKKNLKSLVEENTALRLENSKLRERLGEVEADAPVKAKHVRESVRRIYRDGFHVCNDFYGQRREQDEECMFCDELLYRE
binding [2]: no binding
